Results as given in patent US20260069705A1.
Results are given in words; binding and its absence hold for the method and conditions named. In cells and extracts the contact can be indirect. Some binding calls cover weakened binding; strength is not graded here.

Amino acid sequences for entries named in this document (tags omitted). Residues count along the entry.
UniProt Q99523, residues 78-831: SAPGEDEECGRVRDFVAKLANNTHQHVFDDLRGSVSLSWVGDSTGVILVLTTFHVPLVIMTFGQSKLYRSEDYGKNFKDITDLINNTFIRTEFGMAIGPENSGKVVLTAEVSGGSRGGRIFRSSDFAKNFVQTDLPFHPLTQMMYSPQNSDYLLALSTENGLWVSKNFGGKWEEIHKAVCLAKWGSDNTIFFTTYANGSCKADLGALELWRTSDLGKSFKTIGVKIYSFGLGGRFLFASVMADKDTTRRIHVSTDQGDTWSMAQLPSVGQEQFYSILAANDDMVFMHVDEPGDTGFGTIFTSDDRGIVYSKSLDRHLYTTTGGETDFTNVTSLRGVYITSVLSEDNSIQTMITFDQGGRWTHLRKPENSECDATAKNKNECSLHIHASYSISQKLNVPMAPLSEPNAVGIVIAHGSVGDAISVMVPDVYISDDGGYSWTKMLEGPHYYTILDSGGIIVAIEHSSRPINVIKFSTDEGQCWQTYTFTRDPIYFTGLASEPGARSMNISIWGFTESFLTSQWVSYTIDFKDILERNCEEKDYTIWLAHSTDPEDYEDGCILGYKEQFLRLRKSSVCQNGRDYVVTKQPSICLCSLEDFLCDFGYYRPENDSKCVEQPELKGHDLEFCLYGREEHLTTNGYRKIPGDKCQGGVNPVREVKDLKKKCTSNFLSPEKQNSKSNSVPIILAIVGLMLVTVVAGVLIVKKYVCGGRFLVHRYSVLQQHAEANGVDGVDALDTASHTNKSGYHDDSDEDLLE

Target: sortilin (human), endogenous in human DCs (human) (UniProt Q99523)
Test: proximity ligation assay, monocyte-derived DCs as the reference

B1: prosaposin in human monocyte-derived DCs (MoDCs) (protein)
chain: GPVLGLKECTRGSAVWCQNVKTASDCGAVKHCLQTVWNKPTVKSLPCDICKDVVTAAGDMLKDNATEEEILVYLEKTCDWLPKPNMSASCKEIVDSYLPVILDIIKGEMSRPGEVCSALNLCESLQKHLAELNHQKQLESNKIPELDMTEVVAPFMANIPLLLYPQDGPRSKPQPKDNGDVCQDCIQMVTDIQTAVRTNSTFVQALVEHVKEECDRLGPGMADICKNYISQYSEIAIQMMMHMSLQQPKEICALVGFCDEVKEMPMQTLVPAKVASKNVIPALELVEPIKKHEVPAKSDVYCEVCEFLVKEVTKLIDNNKTEKEILDAFDKMCSKLPKSLSEECQEVVDTYGSSILSILLEEVSPELVCSMLHLCSGTRLPALTVHVTQPKDGGFCEVCKKLVGYLDRNLEKNSTKQEILAALEKGCSFLPDPYQKQCDQFVAEYEPVLIEILVEVMDPSFVCLKIGACPSAHKPLLGTEKCIWGPSYWCQNTETAAQCNAVEHCKRHVWN
- binding: binds
